Results from patent US20050261331A1, “Substituted pyrrolopyridines” (priority 2002, published 2005).
Some of these results come from one statement about several compounds together.

Target: T1, recombinant human Itk kinase domain fused with GST (Homo sapiens, UniProt Q08881)
T1 construct: recombinant human Itk kinase domain fused with GST; made in house; host or cells: High Five insect cells
T1 sequence (Q08881 363-615 limits assumed): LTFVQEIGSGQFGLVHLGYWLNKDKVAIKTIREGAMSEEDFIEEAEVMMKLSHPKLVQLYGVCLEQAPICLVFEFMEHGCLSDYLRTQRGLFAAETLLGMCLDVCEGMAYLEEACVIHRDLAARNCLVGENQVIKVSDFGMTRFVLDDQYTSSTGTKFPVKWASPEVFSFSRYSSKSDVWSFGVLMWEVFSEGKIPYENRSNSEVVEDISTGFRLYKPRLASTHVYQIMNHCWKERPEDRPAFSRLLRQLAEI
Assay: Itk LANCE TRF Assay
Assay type: biochemical
Conditions: 160 ng/well Itk, 2 μM peptide substrate, 50 μM ATP, 50 minutes RT; statement for all Examples; read-out: IC50 values for inhibition of Itk activity
Procedure: The Itk kinase assay utilized recombinant human Itk kinase domain fused with GST (Glutathione S-Transferase). The protein was expressed in High five insect cells, purified in one step on an affinity chromatography glutathione column and stored in 50 mM Tris/HCl (pH 7.6), 150 mM NaCl, 5% (w/v) mannitol, 1 mM DTT, 30% glycerol at −70° C. The kinase substrate used in the assay was a biotinylated peptide derived from the Src-optimal substrate (Nair et al, J. Med. Chem., 38: 4276, 1995; biotin-AEEEIYGEFEAKKKK).
The assay additions were as follows: Test compounds (or controls; 1 μL in 100% DMSO) were added to black 96-well flat-bottomed plates (Greiner 655076) followed by 20 μL Itk in assay buffer and the reaction was started by adding 20 μL ATP and peptide substrate in assay buffer. The assay buffer constitution during phosphorylation was: 50 mM HEPES (pH 6.8), 10 mM MgCl2, 0.015% Brij 35, 1 mM DTT, 10% glycerol, 160 ng/well Itk, 2 μM peptide substrate and 50 μM ATP. The assay was stopped after 50 minutes (RT) by adding 150 μL ice-cold Stop solution (50 mM Tris/HCl, pH 7.5, 10 mM EDTA, 0.9% NaCl and 0.1% BSA) together with LANCE reagents (2 nM PT66-Eu^3+, Wallac AD0069 and 5 μg/ml Streptavidin-APC, Wallac AD0059. Both concentrations were final in stopped assay solution). The plates were measured on a Wallac 1420 Victor 2 instrument with TRF settings after 1 h incubation, and the ratio (665 signal/615 signal)*10000 was used to calculate the inhibition values. IC50 values were determined using XLfit.

| Substance | IC50 |
| --- | --- |
| 1-[4-(5-Bromo-2-phenyl-1H-pyrrolo[2,3-b]pyridin-3-yl)phenoxy]-3-pyrrolidin-1-ylpropan-2-ol trifluoroacetate [Example 22] | < 25 µM |
| 5-Bromo-2,3-bis(4-methoxyphenyl)-1H-pyrrolo[2,3-b]pyridine [Example 9] | < 25 µM |
| 5-Chloro-3-(4,5-dihydropyrimidin-5-yl)-2-[6-(4-methylpiperazin-1-yl)pyridin-3-yl]-1H-pyrrolo[2,3-b]pyridine [Example 68] | < 25 µM |
| 5-{[4(5-Bromo-2-phenyl-1H-pyrrolo[2,3-b]pyridin-3-yl)phenoxy]methyl}-1,3-oxazolidin-2-one trifluoroacetate [Example 31] | < 25 µM |
| N-(3-{4-[5-Bromo-2-(2-furyl)-1H-pyrrolo[2,3-b]pyridin-3-yl]phenoxy}propyl)-N,N-dimethylamine trifluoroacetate [Example 10] | < 25 µM |
